Experimental data from patent publication US5763492A, “Methods for effecting memory enhancement mediated by non-steroidal sulfatase inhibitors” (Duguesne University of the Holy Ghost, priority 1996, dated 1998).

Test system: scopolamine-induced amnesia in rats
Experiment: Passive avoidance test (Gemini Avoidance System), crossover latency, scopolamine-induced amnesia
Type: in vivo, rat
Conditions: scopolamine 1 mg/Kg IP 30 min before acquisition trial; saline one hour before; saline control without scopolamine 583.8±16.2 sec

CN1[C@@H]2C[C@@H](OC(=O)[C@H](CO)c3ccccc3)C[C@H]1[C@@H]1O[C@@H]12 [scopolamine, reference compound]
retention latency 24 hours later: 21.1 ± 10.9 s
